# Results: publication PMC11757159
# Sequences of proteins named here, by UniProt entry; tags and fusion partners are left off.
# UniProt Q92674: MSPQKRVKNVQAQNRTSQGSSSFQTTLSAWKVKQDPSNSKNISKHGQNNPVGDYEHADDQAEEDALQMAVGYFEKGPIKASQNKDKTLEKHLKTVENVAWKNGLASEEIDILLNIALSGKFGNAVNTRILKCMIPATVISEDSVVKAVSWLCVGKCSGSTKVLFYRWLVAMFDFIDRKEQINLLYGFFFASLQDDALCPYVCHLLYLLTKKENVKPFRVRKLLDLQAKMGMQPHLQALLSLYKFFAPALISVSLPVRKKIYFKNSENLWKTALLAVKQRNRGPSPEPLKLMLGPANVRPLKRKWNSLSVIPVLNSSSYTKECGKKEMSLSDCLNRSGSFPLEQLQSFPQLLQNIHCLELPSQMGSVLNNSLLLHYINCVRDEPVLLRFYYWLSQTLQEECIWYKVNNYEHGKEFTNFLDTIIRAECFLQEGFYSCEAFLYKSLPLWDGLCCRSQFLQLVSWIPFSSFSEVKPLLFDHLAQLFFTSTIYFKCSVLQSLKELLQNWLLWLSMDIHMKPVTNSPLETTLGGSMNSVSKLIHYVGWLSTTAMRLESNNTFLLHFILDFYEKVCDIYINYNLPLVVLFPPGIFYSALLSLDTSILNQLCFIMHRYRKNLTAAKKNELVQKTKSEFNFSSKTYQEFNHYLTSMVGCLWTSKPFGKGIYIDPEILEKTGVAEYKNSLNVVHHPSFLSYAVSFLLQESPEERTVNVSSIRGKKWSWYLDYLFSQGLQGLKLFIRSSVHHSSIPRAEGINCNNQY
# UniProt Q5EE01: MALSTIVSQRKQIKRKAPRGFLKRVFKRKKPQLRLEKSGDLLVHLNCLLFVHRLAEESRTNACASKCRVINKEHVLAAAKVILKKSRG
# These are yes or no findings as the source states them, for the method shown. Binding seen in cells or lysates may run through a third protein. Some binding calls cover weakened binding; strength is not graded here.
# Target: CENP-C (human (endogenous in HeLa)) (UniProt Q03188)
# Assay: co-IP; first native ChIP (no fixation) with anti-CENP-C antibody (PD030, asynchronous HeLa; EPR15939, HeLa synchronised to S, G2, M, G1; also transfected HeLa) on chromatin extracted in 0.5X PBS, 0.1 mM EGTA after 6-min MNase digestion; Protein G Sepharose, washed with 0.5X PBS; Western blot
row,Molecule,binding
1,CENP-I (from UniProt Q92674 1-756),binds
2,"CENP-B (protein, UniProt P07199 1-599) MGPKRRQLTFREKSRIIQEVEENPDLRKGEIARRFNIPPSTLSTILKNKRAILASERKYGVASTCRKTNKLSPYDKLEGLLIAWFQQIRAAGLPVKGIILKEKALRIAEELGMDDFTASNGWLDRFRRRHGVVSCSGVARARARNAAPRTPAAPASPAAVPSEGSGGSTTGWRAREEQPPSVAEGYASQDVFSATETSLWYDFLPDQAAGLCGGDGRPRQATQRLSVLLCANADGSEKLPPLVAGKSAKPRAGQAGLPCDYTANSKGGVTTQALAKYLKALDTRMAAESRRVLLLAGRLAAQSLDTSGLRHVQLAFFPPGTVHPLERGVVQQVKGHYRQAMLLKAMAALEGQDPSGLQLGLTEALHFVAAAWQAVEPSDIAACFREAGFGGGPNATITTSLKSEGEEEEEEEEEEEEEEGEGEEEEEEGEEEEEEGGEGEELGEEEEVEEEGDVDSDEEEEEDEESSSEGLEAEDWAQGVVEAGGSFGAYGAQEEAQCPTLHFLEGGEDSDSDSEEEDDEEEDDEDEDDDDDEEDGDEVPVPSFGEAMAYFAMVKRYLTSFPIDDRVQSHILHLEHDLVHVTRKNHARQAGVRGLGHQS",binds

# The remaining lines, values ahead:
row,binding,Molecule
1,binds,CENP-T (from UniProt Q96BT3 1-561)
2,binds,CENP-W (from UniProt Q5EE01 1-88)
